# Assay results published in PubChem BioAssay AID445 (National Center for Advancing Translational Sciences (NCATS), 2006).
# The list shows a part of the results. Shown are side measurements of this screen, not its main read-out; they come without a call. Compounds called inactive in the main read-out are mostly missing here. Words in brackets tell the shape of the fitted curve; partial curves, single points and poor fits give uncertain potencies.
# Experiment: IkB Signaling
# Details: ABC-DLBCL IkBa-CBG/CBR dual luciferase ratio (green luciferase fused to IkBa over red control in OCI-Ly3 lymphoma cells), 4 h
# Outline: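 Curves were fitted separately to fusion (green), unfused (red) and ratio luminescence, then classed by r2, magnitude and activity. Cells: OCI-Ly3, 4 h compound plus doxycycline at 37C; 10 uM MG-132 defined full response.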
# [1] = measured here: control luc red channel unless noted
compound,measurement,setting,value
Cc1ccc(-c2nc(CS(=O)CC(=O)NCCc3ccc(Cl)cc3)c(C)o2)cc1 (stereo not given),AC50,[1],"39.8 µM [falling, single point]"
CC(CNC(=O)CCCn1c(=O)c2cccn2c2ccc(F)cc21)c1ccccc1 (stereo not given),AC50,[1],"12.6 µM [falling, partial curve]"
CCN(C(=O)CCc1nc(-c2ccc(OC)cc2)no1)c1cc(OC)ccc1OC,AC50,[1],"12.6 µM [falling, partial curve]"
COc1ccc(N2CCN(c3ncnc4c3nnn4C)CC2)cc1,AC50,[1],"5.01 µM [rising, full curve]"
CCc1cc2cc(C(=O)Nc3ccccc3F)sc2s1,AC50,[1],"0.000794 µM [falling, full curve]"
CCOc1ccc(-n2c(=O)c3c(C)c(C(=O)N(C)C)sc3n(Cc3cc(C)ccc3C)c2=O)cc1,AC50,[1],"3.98 µM [rising, partial curve]"
O=S(=O)(N1CCCCC1)n1c(Cc2ccccc2)nc2ccccc21,AC50,[1],"20 µM [falling, partial curve]"
CN(C(=O)CSc1nc2ccccc2n1Cc1ccccc1C#N)c1ccccc1,AC50,[1],"39.8 µM [falling, single point]"
CCOc1ccc(-c2nc3cc(NC(=O)COc4cccc(C)c4)ccc3o2)cc1,AC50,[1],"10 µM [rising, partial curve]"
O=C(CSc1ncn[nH]1)OCN1C(=O)c2ccccc2C1=O,AC50,[1],"25.1 µM [rising, partial curve, poor fit] [measured here: IkB-luc green channel]"
O=c1c2sc3ccccc3c2n(Cc2ccc(F)cc2Cl)c(=O)n1Cc1ccccc1,AC50,[1],"39.8 µM [falling, single point]"
Cc1ccc(NC(c2nnc(-c3ccccc3)o2)c2ccccc2F)c(Cl)c1 (stereo not given),AC50,[1],"0.0126 µM [falling, full curve, poor fit]"
COC(=O)c1ccc2nc(C)cc(Nc3cccc(Cl)c3C)c2c1,AC50,[1],"25.1 µM [falling, single point]"
Cc1ccc2oc(-c3ccc(C)c(NC(=O)c4ccc(-c5ccccc5[N+](=O)[O-])o4)c3)nc2c1,AC50,[1],"5.01 µM [falling, partial curve]"
CCC(C(=O)NC1CCCCC1)n1c(SCc2cccc(F)c2)nc2ccncc21 (stereo not given),AC50,[1],"12.6 µM [falling, partial curve]"
Cc1ccc(S(=O)(=O)C(CNS(=O)(=O)c2ccc(F)c(C(F)(F)F)c2)c2ccco2)cc1 (stereo not given),AC50,[1],"25.1 µM [falling, single point]"
CC(CNC(=O)C1CCN(C(=O)c2cc3sccc3n2C)CC1)c1ccccc1 (stereo not given),AC50,[1],"31.6 µM [falling, single point]"
Cc1ccc(Cl)cc1Nc1nn2c(=O)c3ccc(C(=O)NC(C)c4ccccc4)cc3nc2s1 (stereo not given),AC50,[1],"5.01 µM [falling, partial curve]"
COc1ccccc1CNC(=O)CCc1c(C)nn(-c2ccc(N3CCCCC3)nn2)c1C,AC50,[1],"15.8 µM [falling, partial curve]"
Cn1nc(C(=O)NCc2ccccc2)c2c1-c1ccccc1S(=O)(=O)C2,AC50,[1],"20 µM [falling, partial curve]"
COc1ccc(-c2nc3cc(C(C)C)ccc3o2)cc1NC(=O)c1ccccc1[N+](=O)[O-],AC50,[1],"0.398 µM [falling, full curve]"
CCOc1ccccc1CNC(=O)CCn1c(=O)c2cccn2c2ccc(F)cc21,AC50,[1],"31.6 µM [falling, single point]"
COc1ccc2c(c1)c(=O)c(C(=O)c1ccc(C)c(C)c1)cn2CC(=O)Nc1ccc2c(c1)OCCO2,AC50,[1],"10 µM [falling, partial curve]"
Cc1ccc(Cn2c(CN3CCC(C(=O)NCc4ccccc4C)CC3)cc3ccccc32)cc1,AC50,[1],"7.94 µM [falling, full curve]"
C=CCOC(=O)c1[nH]c2c(c1C)C(=O)CC(c1cc(OC)c(OC)c(OC)c1)C2 (stereo not given),AC50,[1],"3.98 µM [falling, full curve, poor fit]"
COc1ccc(NC(=O)C2COc3ccccc3C2)cc1Cl (stereo not given),AC50,[1],"1 µM [rising, full curve]"
Cc1ccc(NC(=O)CCOc2ccccc2)cc1,AC50,[1],"0.126 µM [rising, full curve]"
COC(=O)c1ccc(NC(=O)CCS(=O)(=O)c2ccc(Br)s2)cc1,AC50,[1],"15.8 µM [falling, partial curve, poor fit]"
CCc1ccc(NC(=O)CSc2nc3ccccc3nc2Cc2ccc(C)cc2)cc1,AC50,[1],"0.126 µM [falling, full curve, poor fit]"
Cc1nnc(N2C(=O)c3oc4ccccc4c(=O)c3C2c2ccc(C(C)(C)C)cc2)s1 (stereo not given),AC50,[1],"0.794 µM [rising, full curve]"
COc1ccc(C(=O)CSc2nc(C)cc(C)c2C(=O)Nc2ccccc2C)cc1,AC50,[1],"3.16 µM [falling, partial curve]"
COc1ccc(Cl)cc1NC(=O)Cn1ncc2c3ccccc3n(C)c2c1=O,AC50,measured here: IkB-luc green channel,"31.6 µM [rising, single point]"
same,AC50,measured here: control luc red channel,"25.1 µM [rising, partial curve]"
CCCN(Cc1cccs1)C(=O)Nc1cc(Cl)ccc1C,AC50,[1],"10 µM [falling, partial curve]"
Cc1ccc2[nH]c3c(=O)n(CC(=O)NCc4ccco4)ncc3c2c1,AC50,[1],"0.00631 µM [rising, full curve, poor fit]"
O=C(NCc1ccc(Cl)cc1)c1ccc2c(Cl)c3c(nc2c1)CCCC3,AC50,[1],"7.94 µM [falling, full curve]"
Cc1ccc(C)c(N2CCN(C(=O)CCC(=O)Nc3ccc4nc(N5CCCCC5)cc(C)c4c3)CC2)c1,AC50,[1],"3.16 µM [falling, partial curve]"
C=CCn1c(SCc2ccccc2C#N)nnc1-c1cc(Br)ccc1O,AC50,[1],"15.8 µM [falling, partial curve]"
CCOC(=O)c1cccc(NC(=O)CCCn2nc(C)c3c(C)n(-c4ccccc4)nc3c2=O)c1,AC50,[1],"6.31 µM [falling, partial curve]"
CCOC(=O)c1c(C)n(-c2ccccc2)c2ccc(OC(=O)c3ccccc3NC(=O)C(C)C)cc12,AC50,[1],"0.794 µM [rising, full curve]"

# Given with bars between the fields: part of the list above
compound | measurement | setting | value
COc1ccc2c(c1)c(=O)c(C(=O)c1ccc(C)c(C)c1)cn2CC(=O)Nc1ccc2c(c1)OCCO2 | AC50 | [1] | 10 µM [falling, partial curve]
COc1ccc(NC(=O)C2COc3ccccc3C2)cc1Cl (stereo not given) | AC50 | [1] | 1 µM [rising, full curve]
CCOC(=O)c1cccc(NC(=O)CCCn2nc(C)c3c(C)n(-c4ccccc4)nc3c2=O)c1 | AC50 | [1] | 6.31 µM [falling, partial curve]
